Reference: the supplement of paper PMC11150407
Screen size: about 3,000 compounds; about 45 (2%) showed an effect of 50% or more. This is one part of the list.

tested on: MOLM1 and UCSD/AML1 (averaged); experiment: cell viability relative to DMSO control (POC); higher = less growth inhibition; details: 1 µM; 72 h
Protocol: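 Primary viability screen in the 3q26 EVI1-high AML cell lines MOLM1 and UCSD/AML1, compounds at 1 uM for 72 h. ATP CellTiter-Glo read-out given as percent viable over DMSO control (POC), averaged over duplicates. This mapping covers the TimTec NDL-3000 natural derivative library, whose compounds are identified by TimTec catalogue codes (ST...).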

Structure (SMILES) | cell viability [%]
Cc1[nH]c2ccc(OCc3ccccc3)cc2c1CCNC(=O)COc1ccc(F)cc1F | 99.5
CC12CCC(=O)C=C1CCC1C2CCC2(C)C1CC[C@@]21OCOC12COCO2 (stereo not given in full) | 94.6
COc1ccc(C(=O)Nc2nc(CC(=O)O)cs2)cc1OC | 87.1
O=C1CCc2cc(S(=O)(=O)N3CCc4ccccc4C3)ccc2N1 | 96.5
Cc1[nH]c2ccccc2c1CCNC(=O)c1ccccc1F | 104
Cn1c(SCC(=O)Nc2cccc(Br)c2)nc2c(=O)[nH]cnc21 | 103
CCOc1ccc(-c2nc(CSc3nc4c(=O)[nH]c(C)nc4n3C)c(C)o2)cc1OC | 100
COc1cc(C2C3CCCCC3(O)CCN2Cc2ccccc2Cl)cc(OC)c1OC (stereo not given) | 92.4
Nc1c(C(=O)N2CCC[C@H]2C(=O)O)sc2nc(-c3ccc(F)cc3)cc(-c3ccccc3)c12 | 92.6
CCOC(=O)CNC(=O)c1ccc(OC)cc1 | 105
COc1cc(/C(C)=N/N=C2\NC(=O)C(CC(=O)O)S2)cc(OC)c1OC (stereo not given) | 98.2
COc1cc(C(=O)N2CCN(c3cccc(C)c3C)CC2)cc(OC)c1OC | 12.5
CC(C)C(Nc1ncnc2ccccc12)C(=O)O (stereo not given) | 101
COc1ccc2c(O)c([N+](=O)[O-])c(=O)oc2c1 | 105
COc1cccc(OCCN=Cc2c(O)c(O)c(C(C)C)c3cc(C)c(-c4c(C)cc5c(C(C)C)c(O)c(O)c(C=NCCOc6cccc(OC)c6)c5c4O)c(O)c23)c1 | 106
COc1cc(C(=O)CC2(O)C(=O)N(Cc3cccc4ccccc34)c3ccccc32)cc(OC)c1OC (stereo not given) | 106
COc1ccc2c(c1)c(CC(=O)NCCOc1ccc(Cl)cc1)c(C)n2C(=O)c1ccc(Cl)cc1 | 87
COCCOC(=O)c1c(C)n(CCOc2cccc(OC)c2)c2c1cc(O)c1ccccc12 | 99.9
COc1cc(-c2nnc(NC(=O)c3cccs3)o2)cc(OC)c1OC | 100
CC(=O)NC(Cc1ccc(O)cc1)C(N)=O (stereo not given) | 100
CCOc1ccc2ccccc2c1/C=N/NC(=O)COc1cc(C)ccc1C(C)C | 103
COC(=O)CCC(C)C1CC=C2C3=CCC4CC(OC(=O)OC)CCC4(C)C3CC(=O)C21C (stereo not given) | 113

Structure (SMILES) | cell viability [%]
O=C(/C=C/c1cccc(Cl)c1)c1ccc(OC(=O)c2cccc([N+](=O)[O-])c2)cc1 | 102
Cc1ccc(-n2c(SCc3cc(C)ccc3C)nc3c(=O)[nH]cnc32)cc1 | 93.9
COc1cc(NC(=O)CSc2nc3c(=O)[nH]cnc3n2-c2ccc(C)cc2)cc(OC)c1 | 118
O=c1oc2ccc(Cl)cc2c(-c2cnn(-c3ccccc3)c2)c1-c1ccccc1 | 80.7
COc1ccc2c(c1)c(CC(=O)Nc1cc3oc4ccccc4c3cc1OC)c(C)n2C(=O)c1ccc(Cl)cc1 | 103
COc1cc(/C=N/NC(=O)c2nn(Cc3ccc(Br)cc3)cc2Br)cc(OC)c1OC | 106
O=C(O)/C=C\C(=O)NCC(=O)O | 91.8
Cc1ccc2[nH]c(C)c(CCNS(=O)(=O)c3ccc4c(c3)OCCO4)c2c1 | 99.4
CCCCC(CC)COC(=O)/C=C/c1ccc(OC)cc1 (stereo not given) | 98
COC(=O)c1c(NC(=O)CN2CCC3(O)CCCCC3C2c2ccc(O)c(OC)c2)sc2c1CCCC2 (stereo not given) | 99.4
O=C(Cn1c(=O)cc(C(=O)N2CCCC2)c2ccccc21)Nc1ccc(F)c(Cl)c1 | 95
CCOc1cc(C(=O)Nc2ccc(OC)c(OC)c2)cc(OCC)c1OCC | 93.4
Cc1[nH]c2ccccc2c1CCNC(=O)c1ccccc1Br | 93.6
CCCNC(=O)c1c(NC(=O)c2ccc3c(c2)OCCO3)cnn1C | 94.6
Cc1ccc(-n2c(SCC(=O)Nc3ccc(F)cc3F)nc3c(=O)[nH]cnc32)cc1 | 108
COc1cc2c(cc1OC)C1=NNC(O)(C(F)(F)C(F)(F)C(F)(F)F)N1C(C)(C)C2 (stereo not given) | 97.2
Cc1ccc2oc(-c3ccccc3C)cc(=O)c2c1 | 21.6
CCS(=O)(=O)Nc1cc(OC)c(OC)cc1Cc1nccc2cc(OC)c(OC)cc12 | 95.7
CC1(c2ccccc2)CC(Nc2ccc(I)cc2C(=O)O)C(=O)O1 (stereo not given) | 97.4
CCN(CC)c1ccc(C2C3CCCCC3(O)CCN2CC(=O)Nc2ccc(OC)cc2)cc1 (stereo not given) | 89.2
CCOC(=O)c1cccc(NC(=O)COc2ccc3c(C)cc(=O)oc3c2)c1 | 104
O=C(O)C1CCCN1C(=O)OCc1ccccc1 (stereo not given) | 109

Structure (SMILES) | cell viability [%]
CCN(CC)C(=O)c1cc(=O)n(CC(=O)Nc2ccc(F)c(Cl)c2)c2ccccc12 | 102
COC(=O)c1ccccc1NC(=O)CSc1nc2c(=O)[nH]cnc2n1C | 97.4
COc1cc(/C=N/NC(=O)CNc2n[nH]c(=O)[nH]c2=O)ccc1O | 94.7
Cc1[nH]c2ccccc2c1CCNC(=O)c1c(Cl)cccc1Cl | 94.7
COC(=O)C1=C(N)Oc2c(oc(CO)cc2=O)C1c1ccccc1F (stereo not given) | 103
Cc1ccc(-n2c(SCc3cccc(Cl)c3)nc3c(=O)[nH]cnc32)cc1 | 114
COc1ccc(C(=O)Nc2cccc(C(F)(F)F)c2)cc1OC | 97.9
N[C@@H](CSc1ccccc1)C(=O)O | 97
COC(=O)c1ccc(CSc2nnc(-c3cc(OC)c(OC)c(OC)c3)o2)cc1 | 103
Cc1ccc(-c2oc3ccccc3c(=O)c2OS(=O)(=O)c2ccc(C)cc2)cc1 | 106
COc1cc(OC)cc(C(=O)c2ccc(C(=O)Nc3ccc(Br)c4cccnc34)cc2)c1 | 102
CCn1cnc2cc(NC(=O)c3cc(OC)c(OC)c(OC)c3)ccc2c1=O | 97.8
COc1ccc(-c2ccccc2)cc1 | 105
CN1CCN(c2ccc(/C=C/c3[nH]c(=O)[nH]c(=O)c3[N+](=O)[O-])cc2[N+](=O)[O-])CC1 | 93.2
O=C(CCNc1ccccc1)c1cc2ccccc2oc1=O | 101
CCOC(=O)CCC(=O)NNC(=O)Cc1ccc(Cl)cc1 | 99.2
Cc1ccc(-n2c(SCC(=O)Nc3ccc(Br)cc3F)nc3c(=O)[nH]cnc32)cc1 | 106
COCCn1c(C)c(C(=O)OC)c2cc(O)c3ccccc3c21 | 90.6
COc1cc(OC)c2c(c1)C(=O)N(Cc1ccccc1)C(=O)C2=O | 95.5
COc1cc(C2C(C#N)=C(N)Oc3n[nH]c(C(C)C)c32)cc2c1OCO2 (stereo not given) | 93.8
COc1ccc2oc(=O)c(C(=O)NCCc3c(C)[nH]c4ccc(OC(F)(F)F)cc34)cc2c1 | 98.8

Taken from above:
cell viability [%] with COC(=O)c1ccc(CSc2nnc(-c3cc(OC)c(OC)c(OC)c3)o2)cc1 reads 103
cell viability [%] with N[C@@H](CSc1ccccc1)C(=O)O reads 97
cell viability [%] with COc1cc(C2C(C#N)=C(N)Oc3n[nH]c(C(C)C)c32)cc2c1OCO2 (stereo not given) reads 93.8
cell viability [%] with COc1ccc2oc(=O)c(C(=O)NCCc3c(C)[nH]c4ccc(OC(F)(F)F)cc34)cc2c1 reads 98.8
cell viability [%] with CCN(CC)C(=O)c1cc(=O)n(CC(=O)Nc2ccc(F)c(Cl)c2)c2ccccc12 reads 102
